Here are results for 1 substance from doi:10.1101/2023.05.07.539750.

Protein sequences, listed by entry. Tags and fused reporters are not part of them.
UniProt P20700: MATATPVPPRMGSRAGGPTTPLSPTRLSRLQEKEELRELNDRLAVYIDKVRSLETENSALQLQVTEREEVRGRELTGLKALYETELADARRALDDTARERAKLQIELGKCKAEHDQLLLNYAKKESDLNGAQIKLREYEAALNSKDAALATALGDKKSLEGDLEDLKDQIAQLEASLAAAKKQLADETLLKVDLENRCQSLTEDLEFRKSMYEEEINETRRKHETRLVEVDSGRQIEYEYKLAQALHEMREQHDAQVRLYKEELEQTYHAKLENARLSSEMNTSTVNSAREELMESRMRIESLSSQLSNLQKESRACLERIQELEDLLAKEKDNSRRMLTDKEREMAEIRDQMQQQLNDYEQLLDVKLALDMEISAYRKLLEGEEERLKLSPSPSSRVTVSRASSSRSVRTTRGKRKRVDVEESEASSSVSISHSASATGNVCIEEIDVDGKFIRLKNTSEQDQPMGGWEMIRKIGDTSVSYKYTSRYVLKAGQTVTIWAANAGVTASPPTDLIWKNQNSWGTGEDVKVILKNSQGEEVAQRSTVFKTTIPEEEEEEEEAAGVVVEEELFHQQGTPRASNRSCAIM
UniProt Q12888: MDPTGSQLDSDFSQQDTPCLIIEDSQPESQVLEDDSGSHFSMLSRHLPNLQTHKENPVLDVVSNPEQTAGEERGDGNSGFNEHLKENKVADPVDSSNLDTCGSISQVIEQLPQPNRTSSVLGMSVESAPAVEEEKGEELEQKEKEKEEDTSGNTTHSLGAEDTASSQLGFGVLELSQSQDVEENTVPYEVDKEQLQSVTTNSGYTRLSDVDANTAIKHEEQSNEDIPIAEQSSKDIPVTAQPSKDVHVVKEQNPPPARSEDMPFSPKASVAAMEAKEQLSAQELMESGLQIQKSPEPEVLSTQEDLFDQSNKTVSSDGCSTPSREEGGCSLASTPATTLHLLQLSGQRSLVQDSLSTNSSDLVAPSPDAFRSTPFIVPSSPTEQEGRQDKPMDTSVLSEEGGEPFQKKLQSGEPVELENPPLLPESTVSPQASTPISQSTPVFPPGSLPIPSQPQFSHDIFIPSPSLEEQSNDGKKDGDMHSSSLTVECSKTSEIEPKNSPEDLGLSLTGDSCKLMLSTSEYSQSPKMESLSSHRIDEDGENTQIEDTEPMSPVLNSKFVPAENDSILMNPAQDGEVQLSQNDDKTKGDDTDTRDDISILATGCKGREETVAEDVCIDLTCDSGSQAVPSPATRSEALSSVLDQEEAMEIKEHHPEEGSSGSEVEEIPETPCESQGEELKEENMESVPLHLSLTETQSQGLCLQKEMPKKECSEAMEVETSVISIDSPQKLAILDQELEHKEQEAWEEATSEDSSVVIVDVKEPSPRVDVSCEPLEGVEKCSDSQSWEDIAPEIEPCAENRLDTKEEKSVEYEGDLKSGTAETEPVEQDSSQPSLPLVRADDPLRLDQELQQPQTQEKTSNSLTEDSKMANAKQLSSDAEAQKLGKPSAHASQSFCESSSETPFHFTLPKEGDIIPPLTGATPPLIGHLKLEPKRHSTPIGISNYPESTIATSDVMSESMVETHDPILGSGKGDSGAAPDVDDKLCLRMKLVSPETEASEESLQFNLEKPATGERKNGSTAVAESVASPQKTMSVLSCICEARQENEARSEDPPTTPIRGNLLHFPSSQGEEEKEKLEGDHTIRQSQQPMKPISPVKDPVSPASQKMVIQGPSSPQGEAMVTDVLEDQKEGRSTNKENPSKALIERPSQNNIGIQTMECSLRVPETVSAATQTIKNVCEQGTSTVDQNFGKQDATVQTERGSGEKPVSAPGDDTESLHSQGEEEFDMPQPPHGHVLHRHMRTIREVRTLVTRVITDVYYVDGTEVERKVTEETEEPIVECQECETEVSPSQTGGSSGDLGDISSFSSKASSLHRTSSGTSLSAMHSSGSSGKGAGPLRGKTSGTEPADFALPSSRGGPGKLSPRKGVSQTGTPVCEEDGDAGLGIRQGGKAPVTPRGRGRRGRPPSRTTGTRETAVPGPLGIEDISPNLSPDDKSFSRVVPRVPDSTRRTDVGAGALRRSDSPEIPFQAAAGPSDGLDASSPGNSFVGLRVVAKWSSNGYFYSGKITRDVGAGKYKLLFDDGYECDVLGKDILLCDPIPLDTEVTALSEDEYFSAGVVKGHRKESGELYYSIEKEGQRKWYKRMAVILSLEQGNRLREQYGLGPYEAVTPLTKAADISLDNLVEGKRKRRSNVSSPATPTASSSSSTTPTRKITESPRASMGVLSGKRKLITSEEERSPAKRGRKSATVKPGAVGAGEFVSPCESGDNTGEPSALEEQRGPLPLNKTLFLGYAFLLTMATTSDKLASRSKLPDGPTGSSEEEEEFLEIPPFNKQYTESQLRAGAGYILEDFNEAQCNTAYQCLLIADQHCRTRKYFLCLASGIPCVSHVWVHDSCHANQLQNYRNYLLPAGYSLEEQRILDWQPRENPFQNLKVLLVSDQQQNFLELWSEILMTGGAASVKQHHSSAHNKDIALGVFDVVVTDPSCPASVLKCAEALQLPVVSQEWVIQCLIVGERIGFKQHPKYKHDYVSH

For this assay, the target named is Lamin-B1 (LMNB1) (human (endogenous in cultured human cells; line not named for the co-IP)) (UniProt P20700). Kind of assay: co-IP.

These are yes or no findings as the source states them, for the method shown. Binding seen in cells or lysates may run through a third protein. Some results given as binding are weak or reduced against the parent protein; the word gives no strength.

As for “TP53-binding protein 1 (53BP1) (from UniProt Q12888 1-1972)”, the binding entry was “binds”.
